Reference: patent US20250179215A1, “PLASMIN-BINDING VHHS” (RHEINISCHE FRIEDRICH-WILHELMS-UNIVERSITÄT BONN, priority 2022, published 2025)
No constants are given. Whether binding was seen depends on the method and setting. Some entries that bind do so weakly or less than the wild type. Where a sequence is shown, tags or fusion partners need not be part of it.

Sequences of proteins named here, by UniProt entry; tags and fusion partners are left off. Residues count along the entry.
UniProt P00750, residues 36-562: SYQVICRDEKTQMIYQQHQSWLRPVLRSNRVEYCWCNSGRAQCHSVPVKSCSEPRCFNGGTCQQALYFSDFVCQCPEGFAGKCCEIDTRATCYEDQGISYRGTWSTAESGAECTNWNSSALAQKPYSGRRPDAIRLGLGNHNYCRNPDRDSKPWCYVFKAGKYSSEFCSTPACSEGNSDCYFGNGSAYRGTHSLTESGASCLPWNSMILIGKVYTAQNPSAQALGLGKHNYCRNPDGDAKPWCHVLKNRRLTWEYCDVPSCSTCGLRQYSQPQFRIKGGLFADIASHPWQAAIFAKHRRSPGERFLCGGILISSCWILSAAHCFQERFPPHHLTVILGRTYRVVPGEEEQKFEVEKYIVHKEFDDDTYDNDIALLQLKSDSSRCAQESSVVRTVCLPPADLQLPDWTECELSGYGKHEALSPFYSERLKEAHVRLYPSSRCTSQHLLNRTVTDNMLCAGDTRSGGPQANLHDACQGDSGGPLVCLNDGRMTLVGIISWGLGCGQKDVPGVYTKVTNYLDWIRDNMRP

Biological target: T1, tissue plasminogen activator (recombinant tPA, Actilyse) (UniProt P00750 36-562)
T1 construct: Actilyse is recombinant human tPA (alteplase)
Test: BLI

Row | Binder | binding
1 | VHH A11 including C-terminal His6-tag (VHH, Alpaca-derived) VHH: QVQLVETGGGLVQAGGSLRLSCAASGNIFSINAMDWYRQAPGKERELVAAITSGGTTNYADSVKGRFTISRDNAKDTVYLQMNSLKPEDAAFYYCNADGYYSDYDKNLAEFNSWGQGTQVTVSS | binds
2 | VHH C5 including C-terminal His6-tag (VHH, Alpaca-derived) VHH: QVQLVESGGGLVQAGGSLRLSCAASGRRFMVVAMGWYRQAPGNQRELVASITNGGTTNYAGSVKGRFTISGDSAKNTVYLHMNSLKPEDTAVYYCTTDVVFRDGNGQIQSNWGQGTQVTVSS | binds
